Experimental data: the supplement of paper PMC6411743
± gives the standard deviation of the averaged measurements. This is a selection; strong and weak results do not stand in their true shares.

Amino acid sequences for entries named in this document (tags omitted). A change or cut given only in a name is not applied to a line headed by its entry.
UniProt Q96F86: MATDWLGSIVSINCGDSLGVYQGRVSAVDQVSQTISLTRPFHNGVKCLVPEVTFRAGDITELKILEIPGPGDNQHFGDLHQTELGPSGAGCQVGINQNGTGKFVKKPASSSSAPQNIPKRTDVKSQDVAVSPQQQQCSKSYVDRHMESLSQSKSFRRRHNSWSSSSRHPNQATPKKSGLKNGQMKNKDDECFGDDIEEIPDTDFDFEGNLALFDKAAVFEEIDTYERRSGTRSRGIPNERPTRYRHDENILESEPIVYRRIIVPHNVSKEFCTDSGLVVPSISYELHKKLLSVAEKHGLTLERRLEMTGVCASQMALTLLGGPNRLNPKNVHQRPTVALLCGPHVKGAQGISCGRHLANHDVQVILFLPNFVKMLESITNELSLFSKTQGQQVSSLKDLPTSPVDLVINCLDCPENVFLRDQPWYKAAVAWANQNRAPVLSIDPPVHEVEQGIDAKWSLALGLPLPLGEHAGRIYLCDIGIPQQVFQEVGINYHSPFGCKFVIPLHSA
UniProt Q96PV6, whole entry: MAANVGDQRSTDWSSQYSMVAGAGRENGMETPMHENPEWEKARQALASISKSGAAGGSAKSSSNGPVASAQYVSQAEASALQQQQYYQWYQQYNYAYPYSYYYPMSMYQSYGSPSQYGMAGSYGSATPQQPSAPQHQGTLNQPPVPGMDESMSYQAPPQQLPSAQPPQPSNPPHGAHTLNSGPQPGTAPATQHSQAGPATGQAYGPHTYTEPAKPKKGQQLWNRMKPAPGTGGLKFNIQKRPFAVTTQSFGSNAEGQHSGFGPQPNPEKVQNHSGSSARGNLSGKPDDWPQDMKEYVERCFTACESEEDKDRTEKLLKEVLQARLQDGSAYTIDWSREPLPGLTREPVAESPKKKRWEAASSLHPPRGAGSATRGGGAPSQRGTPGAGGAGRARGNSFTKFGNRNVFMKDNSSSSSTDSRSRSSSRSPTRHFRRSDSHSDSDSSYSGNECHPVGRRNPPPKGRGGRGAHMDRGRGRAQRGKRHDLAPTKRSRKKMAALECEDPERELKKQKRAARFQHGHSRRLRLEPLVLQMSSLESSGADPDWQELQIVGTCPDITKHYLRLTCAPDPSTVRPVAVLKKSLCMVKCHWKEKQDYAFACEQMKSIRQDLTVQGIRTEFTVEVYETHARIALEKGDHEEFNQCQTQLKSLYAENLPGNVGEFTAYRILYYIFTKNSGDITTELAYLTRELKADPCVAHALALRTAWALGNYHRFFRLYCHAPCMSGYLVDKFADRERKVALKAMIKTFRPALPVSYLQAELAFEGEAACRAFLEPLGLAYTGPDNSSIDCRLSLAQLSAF
UniProt Q96E52: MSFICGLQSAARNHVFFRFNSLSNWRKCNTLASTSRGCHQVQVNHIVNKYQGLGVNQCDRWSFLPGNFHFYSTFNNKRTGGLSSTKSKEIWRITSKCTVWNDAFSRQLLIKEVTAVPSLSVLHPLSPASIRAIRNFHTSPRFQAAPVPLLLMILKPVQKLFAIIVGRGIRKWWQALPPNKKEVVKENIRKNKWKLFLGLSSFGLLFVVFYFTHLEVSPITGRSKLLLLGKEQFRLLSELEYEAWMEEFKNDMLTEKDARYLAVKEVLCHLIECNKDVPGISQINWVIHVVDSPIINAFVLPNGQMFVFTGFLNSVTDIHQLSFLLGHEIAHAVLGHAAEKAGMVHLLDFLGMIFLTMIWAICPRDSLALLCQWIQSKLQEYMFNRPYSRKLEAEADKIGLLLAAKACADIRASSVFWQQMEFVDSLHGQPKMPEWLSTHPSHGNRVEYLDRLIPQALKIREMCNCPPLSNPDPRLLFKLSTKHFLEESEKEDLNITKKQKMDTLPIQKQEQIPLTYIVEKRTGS
UniProt Q96G74: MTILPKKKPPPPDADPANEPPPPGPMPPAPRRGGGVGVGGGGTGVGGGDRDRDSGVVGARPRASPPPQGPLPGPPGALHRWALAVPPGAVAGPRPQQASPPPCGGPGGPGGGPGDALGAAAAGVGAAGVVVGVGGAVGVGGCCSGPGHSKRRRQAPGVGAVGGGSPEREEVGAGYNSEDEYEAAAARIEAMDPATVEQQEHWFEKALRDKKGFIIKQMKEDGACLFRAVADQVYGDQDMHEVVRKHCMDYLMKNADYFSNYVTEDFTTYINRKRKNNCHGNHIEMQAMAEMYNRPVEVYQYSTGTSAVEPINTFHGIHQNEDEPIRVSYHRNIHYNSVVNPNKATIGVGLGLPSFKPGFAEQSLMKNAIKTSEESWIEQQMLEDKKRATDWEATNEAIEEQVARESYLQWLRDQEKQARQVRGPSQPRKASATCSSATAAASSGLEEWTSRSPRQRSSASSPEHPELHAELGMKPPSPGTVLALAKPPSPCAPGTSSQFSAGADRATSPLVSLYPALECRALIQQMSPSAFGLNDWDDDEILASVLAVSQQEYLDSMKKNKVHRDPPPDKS
UniProt Q96LT7: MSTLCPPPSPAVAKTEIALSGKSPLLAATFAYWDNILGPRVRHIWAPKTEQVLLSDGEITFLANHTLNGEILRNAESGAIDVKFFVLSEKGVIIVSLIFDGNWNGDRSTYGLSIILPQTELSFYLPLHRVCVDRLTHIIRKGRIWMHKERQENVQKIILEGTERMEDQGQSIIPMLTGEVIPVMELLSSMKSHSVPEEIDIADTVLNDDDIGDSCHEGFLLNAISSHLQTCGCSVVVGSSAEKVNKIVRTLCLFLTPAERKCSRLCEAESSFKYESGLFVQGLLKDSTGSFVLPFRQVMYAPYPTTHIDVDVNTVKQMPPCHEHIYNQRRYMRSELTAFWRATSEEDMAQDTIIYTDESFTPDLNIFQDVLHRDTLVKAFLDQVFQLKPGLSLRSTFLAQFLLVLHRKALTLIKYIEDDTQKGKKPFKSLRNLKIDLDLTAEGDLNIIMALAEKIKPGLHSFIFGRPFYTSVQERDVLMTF
UniProt Q96S90: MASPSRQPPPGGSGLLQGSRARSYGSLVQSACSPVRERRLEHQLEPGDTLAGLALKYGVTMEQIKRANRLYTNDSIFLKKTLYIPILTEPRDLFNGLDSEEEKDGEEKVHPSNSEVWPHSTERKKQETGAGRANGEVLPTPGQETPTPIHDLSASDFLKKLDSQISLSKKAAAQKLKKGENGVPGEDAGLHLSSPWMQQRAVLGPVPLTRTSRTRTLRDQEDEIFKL
UniProt Q96DC7: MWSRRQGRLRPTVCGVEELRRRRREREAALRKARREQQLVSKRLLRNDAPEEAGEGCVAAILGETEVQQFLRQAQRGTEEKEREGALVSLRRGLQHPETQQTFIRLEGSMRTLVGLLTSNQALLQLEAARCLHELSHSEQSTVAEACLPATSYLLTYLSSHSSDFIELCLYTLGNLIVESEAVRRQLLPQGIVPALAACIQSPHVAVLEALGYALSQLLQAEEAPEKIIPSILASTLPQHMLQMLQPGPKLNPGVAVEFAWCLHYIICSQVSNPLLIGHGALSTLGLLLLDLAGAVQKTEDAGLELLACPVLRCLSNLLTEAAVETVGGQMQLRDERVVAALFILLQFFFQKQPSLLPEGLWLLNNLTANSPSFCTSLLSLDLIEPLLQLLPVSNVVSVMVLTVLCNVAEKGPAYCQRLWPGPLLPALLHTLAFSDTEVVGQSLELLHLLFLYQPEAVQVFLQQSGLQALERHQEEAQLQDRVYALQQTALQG
UniProt Q96CU9: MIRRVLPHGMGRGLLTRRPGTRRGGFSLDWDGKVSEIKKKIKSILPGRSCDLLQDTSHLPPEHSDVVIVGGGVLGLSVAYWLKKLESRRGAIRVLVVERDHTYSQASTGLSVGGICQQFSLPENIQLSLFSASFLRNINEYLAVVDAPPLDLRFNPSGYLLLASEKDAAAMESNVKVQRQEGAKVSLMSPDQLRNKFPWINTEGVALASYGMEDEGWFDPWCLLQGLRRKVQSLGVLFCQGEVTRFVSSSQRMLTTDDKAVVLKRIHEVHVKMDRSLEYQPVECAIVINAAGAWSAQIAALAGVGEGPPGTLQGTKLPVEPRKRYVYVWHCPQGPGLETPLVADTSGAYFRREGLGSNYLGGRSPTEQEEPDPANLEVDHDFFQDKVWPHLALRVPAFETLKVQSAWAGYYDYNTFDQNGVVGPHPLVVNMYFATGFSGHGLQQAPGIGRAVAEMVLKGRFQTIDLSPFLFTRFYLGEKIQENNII
UniProt Q96P48: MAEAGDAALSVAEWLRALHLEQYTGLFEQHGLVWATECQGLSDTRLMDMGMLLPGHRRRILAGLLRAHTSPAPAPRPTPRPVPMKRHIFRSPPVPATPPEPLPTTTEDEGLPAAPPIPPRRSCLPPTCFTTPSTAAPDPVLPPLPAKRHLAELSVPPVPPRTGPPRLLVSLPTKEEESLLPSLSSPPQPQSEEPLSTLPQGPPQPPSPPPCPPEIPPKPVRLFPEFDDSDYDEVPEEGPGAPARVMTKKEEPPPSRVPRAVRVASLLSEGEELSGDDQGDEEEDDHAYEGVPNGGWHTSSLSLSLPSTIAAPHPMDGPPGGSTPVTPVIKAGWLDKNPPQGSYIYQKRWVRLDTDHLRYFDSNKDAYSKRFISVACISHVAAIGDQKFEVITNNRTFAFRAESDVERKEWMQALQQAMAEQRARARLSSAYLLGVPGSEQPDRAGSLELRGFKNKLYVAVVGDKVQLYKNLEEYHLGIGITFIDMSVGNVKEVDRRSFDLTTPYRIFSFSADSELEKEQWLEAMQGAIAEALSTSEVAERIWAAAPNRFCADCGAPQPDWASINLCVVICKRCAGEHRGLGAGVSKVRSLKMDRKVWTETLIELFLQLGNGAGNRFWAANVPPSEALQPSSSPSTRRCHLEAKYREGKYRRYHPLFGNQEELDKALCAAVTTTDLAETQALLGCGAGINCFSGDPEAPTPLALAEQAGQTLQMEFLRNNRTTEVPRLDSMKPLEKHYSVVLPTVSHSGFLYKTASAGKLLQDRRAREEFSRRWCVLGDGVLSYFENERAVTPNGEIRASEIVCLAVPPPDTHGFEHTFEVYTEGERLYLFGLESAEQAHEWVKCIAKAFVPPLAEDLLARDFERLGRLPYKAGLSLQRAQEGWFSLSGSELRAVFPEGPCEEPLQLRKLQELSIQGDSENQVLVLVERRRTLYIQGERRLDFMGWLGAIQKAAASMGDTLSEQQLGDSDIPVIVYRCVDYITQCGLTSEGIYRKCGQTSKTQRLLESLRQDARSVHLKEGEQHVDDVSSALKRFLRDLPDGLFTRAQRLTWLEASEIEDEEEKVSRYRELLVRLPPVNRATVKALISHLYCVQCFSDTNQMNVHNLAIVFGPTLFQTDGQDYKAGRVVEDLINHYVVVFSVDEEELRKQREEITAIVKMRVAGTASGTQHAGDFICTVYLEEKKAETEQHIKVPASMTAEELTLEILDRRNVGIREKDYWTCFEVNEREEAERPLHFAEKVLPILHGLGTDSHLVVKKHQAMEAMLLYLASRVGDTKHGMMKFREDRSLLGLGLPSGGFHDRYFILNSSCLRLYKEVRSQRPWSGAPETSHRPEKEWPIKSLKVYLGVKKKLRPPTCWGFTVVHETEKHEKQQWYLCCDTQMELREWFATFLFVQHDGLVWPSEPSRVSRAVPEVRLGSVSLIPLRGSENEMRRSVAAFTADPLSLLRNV
UniProt Q96F25: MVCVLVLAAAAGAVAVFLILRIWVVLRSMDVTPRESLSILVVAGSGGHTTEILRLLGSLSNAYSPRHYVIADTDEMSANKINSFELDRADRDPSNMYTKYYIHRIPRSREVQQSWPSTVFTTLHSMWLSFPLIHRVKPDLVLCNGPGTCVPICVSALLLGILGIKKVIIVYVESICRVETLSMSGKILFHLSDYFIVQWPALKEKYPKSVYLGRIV
UniProt Q96K49: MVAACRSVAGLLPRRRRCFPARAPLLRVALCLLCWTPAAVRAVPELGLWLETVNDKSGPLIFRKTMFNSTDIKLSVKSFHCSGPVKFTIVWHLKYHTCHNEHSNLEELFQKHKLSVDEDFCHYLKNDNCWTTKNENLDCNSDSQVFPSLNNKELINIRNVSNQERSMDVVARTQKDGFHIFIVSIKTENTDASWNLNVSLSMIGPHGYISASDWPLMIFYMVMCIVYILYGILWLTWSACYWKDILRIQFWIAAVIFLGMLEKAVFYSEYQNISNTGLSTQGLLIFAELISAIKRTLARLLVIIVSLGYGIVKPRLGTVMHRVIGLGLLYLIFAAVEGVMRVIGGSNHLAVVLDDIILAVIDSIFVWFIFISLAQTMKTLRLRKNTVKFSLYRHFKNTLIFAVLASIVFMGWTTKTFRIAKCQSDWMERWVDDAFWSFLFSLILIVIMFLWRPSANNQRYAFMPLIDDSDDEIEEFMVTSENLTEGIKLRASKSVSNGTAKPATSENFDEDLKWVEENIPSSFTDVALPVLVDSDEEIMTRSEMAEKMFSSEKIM

Compound: Nc1ncnc2c1ncn2[C@@H]1O[C@H](COP(=O)(O)OP(=O)(O)OP(=O)(O)O)[C@@H](O)[C@H]1O [adenosine triphosphate]
Assay: NP40-soluble protein abundance relative to vehicle (solubility fold change) (ratio); higher = more soluble protein in presence of ATP
Procedure, shortened: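 Values are fold changes against the detergent-processed vehicle, based on vsn-normalised intensities. Jurkat crude lysate was treated at eight concentrations from 0.1 to 10 mM (10 min at room temperature, then 3 min at 37 °C), solubilised with 0.8% NP40 and benzonase, ultracentrifuged and analysed by TMT-labelled LC-MS/MS over three independent experiments.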

Row | Target | NP40-soluble protein abundance (concentration: 1mM) | NP40-soluble protein abundance (concentration: 2mM) | NP40-soluble protein abundance (concentration: 4mM) | NP40-soluble protein abundance (concentration: 6mM) | NP40-soluble protein abundance (concentration: 8mM) | NP40-soluble protein abundance (concentration: 10mM)
1 | IFT140 (UniProt Q96RY7) | 1.01 ± 0.054 | 1.01 ± 0.11 | 1 ± 0.14 | 0.976 ± 0.15 | 0.991 ± 0.12 | 1.01 ± 0.14
2 | EDC3 (UniProt Q96F86) | 1.11 ± 0.047 | 1.1 ± 0.033 | 1.09 ± 0.053 | 1.13 ± 0.029 | 1.09 ± 0.081 | 1.08 ± 0.054
3 | UniProt Q96PV6-2 | 1.05 ± 0.025 | 1.05 ± 0.024 | 1.087 ± 0.0021 | 1.11 ± 0.021 | 1.15 ± 0.02 | 1.17 ± 0.018
4 | UniProt Q96RT1 and related entries | 1 ± 0.02 | 0.984 ± 0.014 | 0.988 ± 0.021 | 0.998 ± 0.042 | 0.994 ± 0.022 | 1.002 ± 0.0084
5 | OMA1 (UniProt Q96E52) | 0.992 ± 0.054 | 1.02 ± 0.068 | 0.995 ± 0.068 | 0.987 ± 0.074 | 0.997 ± 0.12 | 0.978 ± 0.076
6 | UniProt Q96G74 and related entries | 0.991 ± 0.037 | 1 ± 0.024 | 1.02 ± 0.017 | 1.05 ± 0.017 | 0.972 ± 0.013 | 1.02 ± 0.057
7 | C9orf72 (UniProt Q96LT7) | 1.23 ± 0.4 | 0.962 ± 0.12 | 0.928 ± 0.12 | 0.93 ± 0.1 | 0.966 ± 0.17 | 0.981 ± 0.086
8 | UniProt Q96K17 | 0.997 ± 0.12 | 1.03 ± 0.088 | 1.01 ± 0.087 | 1.07 ± 0.11 | 1.04 ± 0.028 | 0.979 ± 0.12
9 | LYSMD1 (UniProt Q96S90) | 0.989 ± 0.038 | 0.984 ± 0.036 | 1.01 ± 0.038 | 1 ± 0.022 | 0.949 ± 0.038 | 0.947 ± 0.026
10 | UniProt Q96DC7 and related entries | 0.961 ± 0.11 | 1.03 ± 0.13 | 1.02 ± 0.14 | 1.02 ± 0.097 | 0.937 ± 0.069 | 1 ± 0.034
11 | UniProt Q96CU9 and related entries | 1.02 ± 0.075 | 1.03 ± 0.057 | 1.03 ± 0.051 | 0.971 ± 0.075 | 1.08 ± 0.012 | 1.09 ± 0.025
12 | UniProt Q96P48 and related entries | 1.03 ± 0.085 | 1.02 ± 0.086 | 1.02 ± 0.039 | 0.95 ± 0.082 | 1.03 ± 0.02 | 1 ± 0.055
13 | ALG14 (UniProt Q96F25) | 1.15 ± 0.022 | 1.07 ± 0.1 | 1.15 ± 0.11 | 1.14 ± 0.025 | 1.2 ± 0.094 | 1.11 ± 0.13
14 | UniProt Q96K49 and related entries | 0.969 ± 0.075 | 0.958 ± 0.023 | 0.981 ± 0.012 | 0.973 ± 0.025 | 0.949 ± 0.073 | 0.958 ± 0.029
15 | UniProt Q96PU5 and related entries | 0.901 ± 0.074 | 0.937 ± 0.052 | 0.974 ± 0.065 | 0.882 ± 0.051 | 0.957 ± 0.046 | 0.959 ± 0.075

2 entries from above, in CSV form:
Row,Target,NP40-soluble protein abundance (concentration: 1mM),NP40-soluble protein abundance (concentration: 2mM),NP40-soluble protein abundance (concentration: 4mM),NP40-soluble protein abundance (concentration: 6mM),NP40-soluble protein abundance (concentration: 8mM),NP40-soluble protein abundance (concentration: 10mM)
7,C9orf72 (UniProt Q96LT7),1.23 ± 0.4,0.962 ± 0.12,0.928 ± 0.12,0.93 ± 0.1,0.966 ± 0.17,0.981 ± 0.086
8,UniProt Q96K17,0.997 ± 0.12,1.03 ± 0.088,1.01 ± 0.087,1.07 ± 0.11,1.04 ± 0.028,0.979 ± 0.12
